The record followed here is PMC10163288.

B1: il2ra_site2_2erj_normal_mot_HHH_b1_04373_af2_000000118_0001_18_33_H_._HHH_b1_02368_af2_0001_0000200015_0000001_0 (protein)
chain: SSSSDEELREEVEELLERAREAYEEGDLELVYELAVEAAHFAARNQDEELLELILEVVERLSSSS
B2: il2ra_site2_3nfp_normal_mot_HHH_b1_01086_af2_000000264_0001_39_53_H_._HHH_b2_02085_0001_0000300023_0000001_0_af2pred_0001_af2pred_1_swapped (protein)
chain: SSSSDEELREEIEELLEEAKRIEDEARVLLLLARARLLALENQDDELARLVREVAKELRSSSSSS
B3: il2ra_site1_2b5i_normal_mot_HHH_b2_04910_000000118_0001_1_19_H_._HHH_b1_03583_0001_0000600026_0000001_0_af2pred_dldesign_0_af2pred (protein)
chain: SSSSSTEEIRKLLLEADKLKQAGKDEEALEVLEKALELAKKAKNPLWIKIIESAIKDLLESSSSS
B4: il2ra_site2_3nfp_normal_mot_HHH_b1_00660_af2_000000090_0001_40_57_H_._HHH_b1_02730_0001_0001000022_0000001_0 (protein)
chain: SSSSSDEEVRELLEQLRELIEKNDEEEFERLSREITNLAYELNNFELFALVQELRARFISSSSSS
B5: il2ra_site1_2b5i_normal_mot_f5ff40796168375b462bec8614a1db4a_0001_1_000000138_0001_53_65_H_._HHH_b1_07093_0001_0000700041_0000001_0_af2pred_dldesign_0_af2pred (protein)
chain: SSSSEDARELVLELKEEAERLAAAGRREEAKRLLILALRLAKKNNDEELVEEIEALLKELESSSS
B6: il2ra_site1_2b5i_sap_21_mot_HHH_b2_07467_000000079_0001_1_17_H_._5f3e9e6710cf722fe56a0b12d5cb6937_0001_0001_0000300034_0000001_0_0001_af2pred_dldesign_0_af2pred (protein)
chain: SSSSSSKEALRLFLEANELYQAGKEEEAKKKLEEALELAKKEGTTSIAKLIENALKILSSSSSSS
B7: il2ra_site1_2b5i_normal_mot_HHH_b1_08745_af2_000000166_0001_39_57_H_._HHH_b2_03408_0001_0000300018_0000001_0_af2pred_0001_af2pred (protein)
chain: SSSSSEEAEKVFELIEEANRLSRNGNPEQAREVLERALEIAEELGSRNLFRFVRAALKLLSSSSS
B8: il2ra_site1_2b5i_normal_mot_22370d59370c406a0c205a431f537cfa_0001_af2_000000141_0001_1_31_H_._HHH_b2_04268_af2_0001_0001200053_0000001_0_af2pred_dldesign_0_af2p … (protein)
chain: SSSSSKEEALEVSDVIEELVEKLGLSDEQYATLSRLAVDLLYKGVSAEEIKERLKALAEELSSSS
B9: il2ra_site1_1z92_normal_mot_30aa582283ecb64a35315be28fff3e94_0001_000000110_0001_35_49_H_._HHH_b2_03912_0001_0000100005_0000001_0 (protein)
chain: SSSSEQLKRIAERLVEDFVRLADLSEEDQKYLEEVAKELLEEGYSSQEIAEILAKEALKLESSSS
B10: il2ra_site1_1z92_normal_mot_203a44625a3a2ba431098544127a80a6_0001_af2_000000214_0001_15_33_H_._HHH_b2_04566_0001_0000100008_0000001_0_af2pred_dldesign_0_af2pred (protein)
chain: SSSDPERRRRTLDKVVDIAAEAAGLSEEQRAKLRALVDELIAAGTPLAEAMKLINKRAAELSSSS
B11: il2ra_site2_3nfp_sap_28_mot_26b1ad55b226f03db0745a42e2bcfdd2_0001_af2_000000054_0001_35_50_H_._1fff0394edc8abfb79f738926a078c58_0001_0001_0000300019_0000001_0_0 … (protein)
chain: SSSSSSSDEEEVEELLEEAKRIDDEFEFAAVLALALFIAVESNNEELEKLVKEVARRSWSSSSSS
B12: il2ra_site2_2erj_sap_12_mot_HHH_b1_02466_000000018_0001_22_38_H_._HHH_b1_03184_0001_0000500013_0000001_0_0001 (protein)
chain: SSSNEDLHRAYELANEIMEALHKGDKERVEELLEELREIAERLQSDTLKEIIEFLEELLERQSSS
B13: il2ra_site1_2b5i_sap_10_mot_ems_3hM_3687_af2_000000248_0001_45_64_H_._HHH_b1_00192_af2_0001_0000400049_0000001_0_0001 (protein)
chain: SSSSSEATRRAQELFKEADRLDREGNPEEARKLLEEAEEVAEEGNSRAILKLIRFALEQVSSSSS
B14: il2ra_site2_2erj_normal_mot_c2bf78bdce995293a161f7082e24b401_0001_af2_000000082_0001_17_32_H_._HHH_b2_07485_0001_0000600036_0000001_0 (protein)
chain: SSSSSEEREEIEELIERLEEAIERGDLEQAYRLANRALHLISKLGDEELQEELAETLERASSSSS
B15: il2ra_site2_3nfp_normal_mot_HHH_b1_00660_af2_000000090_0001_40_57_H_._HHH_b2_00996_0001_0000300010_0000001_0_af2pred_0001_af2pred_1 (protein)
chain: SSSSSEEEEARRLVEEVEELLKEGDPEEAEKLLEKAILVVAELGDFELFALLSELRELLESSSSS
B16: il2ra_site2_2erj_normal_mot_HHH_b2_01275_af2_000000073_0001_23_39_H_._HHH_b2_05199_af2_0001_0000200020_0000001_0 (protein)
chain: SSSSDEKLRELYELAVLLVRLLWEGDEEKFEEVLEQAKKLAEERDSRSAEEFLEELEKRLSSSSS
B17: il2ra_site2_2erj_normal_mot_HHH_b2_01275_af2_000000073_0001_23_39_H_._HHH_b1_05548_af2_0001_0000200008_0000001_0 (protein)
chain: SSSSSDERLRRVYELAVRLLAAQSEEEIEKVYEEVRKLAEELDNPELEELVEFLFRHARSSSSSS
B18: il2ra_site2_3nfp_normal_mot_ems_p1-15H-GBL-16H-GBL-14H_0089_0001_0001_0001_af2_000000072_0001_19_33_H_._2582da7ae1e3161411d063f18acf3b14_0001_1_0001_0000200003_ … (protein)
chain: PDVSRILYKLLEEDPDNDLAFELFALLLEAILKGDEELRERLKEAAELLEEGDPERAEELLERLR
B19: il2ra_site2_2erj_sap_24_mot_3b06bd03f1c6bceadc68eab912867b79_0001_000000296_0001_36_50_H_._HHH_b2_06883_af2_0001_0000600006_0000001_0_0001_af2pred_0001_1_af2pre … (protein)
chain: SSSSDVEEIIEEIEELLERNDREQVEHLAEELLELAQEINDPELLFAVLEVLERVKEFLDSSSSS

The other results are listed elsewhere or left out.

In the test the target is il2ra, P01589. Put plainly: yeast display titration.
On to B1, for which the “apparent Kd” value is “inactive: no binding seen”.

With B2, the “apparent Kd” value is “inactive: no binding seen”.

For B3, the “apparent Kd” value was “inactive: no binding seen”.

B4: the “apparent Kd” value was “inactive: no binding seen”.

Regarding B5, the “apparent Kd” value was “inactive: no binding seen”.

Regarding B6, the “apparent Kd” value was “inactive: no binding seen”.

As to B7, the “apparent Kd” value is “inactive: no binding seen”.

As for B8, the “apparent Kd” value is “inactive: no binding seen”.

For B9, the “apparent Kd” value is “inactive: no binding seen”.

Consider B10, for which the “apparent Kd” value is “inactive: no binding seen”.

With B11, the “apparent Kd” value is “inactive: no binding seen”.

B12: the “apparent Kd” value was “inactive: no binding seen”.

As to B13, the “apparent Kd” value was “inactive: no binding seen”.

Regarding B14, the “apparent Kd” value is “inactive: no binding seen”.

With B15, the “apparent Kd” value was “inactive: no binding seen”.

Regarding B16, the “apparent Kd” value was “inactive: no binding seen”.

Turning to B17, the “apparent Kd” value was “inactive: no binding seen”.

Turning to B18, the “apparent Kd” value is “inactive: no binding seen”.

In the case of B19, the “apparent Kd” value is “inactive: no binding seen”.
